# Source: the supplement of paper PMC8728848
# Some of the results follow.
# B1: AT3G09350(27) (Arabidopsis thaliana), Q84J81 (protein)
# chain: MAKDGPNWDGLLKWSLSHADGTRPTRQLSEEDRKWFMEAMQSQTVDVVKRMKEITLVMQTPEQVLVEHGVTPEDIQDLLDELQEHVESIDMANDLHSIGGLVPLLSFLKNSHANIRAKAADVVSTIVQNNPRSQELVMETNALESLLSNFTSDTDIHARTQALGAISSLIRHNKPGVTAFKLANGYAGLRDALASDSVRFQRKALNLLQYLLQEDDSDRSIATGLGFPRVMMHLASSDDAEIREAALRGLLELSREKNDGSSSIDKSDEKLRQLLEERIKGITLMSQEDLETVKEERQLVDLLWSICYNEPSSLREKGLVVLPGEDALPPDVASKLFEPPLRASAANRNATEKKDEPMKLLGP
# Experiments:
# Assay in all cases: glycan array binding signal (z-score within array); higher = stronger binding
# Details in all cases: glycan notation: IUPAC condensed, linker removed
# Fuc(a1-2)Gal = molecular target: Fuc(a1-2)Gal
# How it was run: (§1)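 Glycan array data came from 3228 arrays in the Consortium for Functional Glycomics database, and only arrays with an available protein sequence were kept. Glycan names were put into IUPAC-condensed notation, and columns mapping to the same glycan were averaged. The binding signal is a within-array Z-score, averaged across arrays of one protein sequence run at different concentrations or buffers and across linkers. A negative Z-score can be read as non-binding.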
# Fuc(a1-2)Gal(b1-3)GalNAc = molecular target: Fuc(a1-2)Gal(b1-3)GalNAc
# How it was run: as §1
# [1] = molecular target: Fuc(a1-2)Gal(b1-3)GalNAc(a1-3)[Fuc(a1-2)]Gal(b1-4)Glc
# How it was run: as §1
# [2] = molecular target: Fuc(a1-2)Gal(b1-3)GalNAc(a1-3)[Fuc(a1-2)]Gal(b1-4)GlcNAc
# How it was run: as §1
# [3] = molecular target: Fuc(a1-2)Gal(b1-3)GalNAc(b1-3)Gal
# How it was run: as §1
# [4] = molecular target: Fuc(a1-2)Gal(b1-3)GalNAc(b1-3)Gal(a1-4)Gal(b1-4)Glc
# How it was run: as §1
# [5] = molecular target: Fuc(a1-2)Gal(b1-3)GalNAc(b1-4)[Neu5Ac(a2-3)]Gal(b1-4)Glc
# How it was run: as §1
# Fuc(a1-2)Gal(b1-3)GlcNAc = molecular target: Fuc(a1-2)Gal(b1-3)GlcNAc
# How it was run: as §1
# [6] = molecular target: Fuc(a1-2)Gal(b1-3)GlcNAc(b1-2)Man(a1-3)[Fuc(a1-2)Gal(b1-3)GlcNAc(b1-2)Man(a1-6)]Man(b1-4)GlcNAc(b1-4)GlcNAc
# How it was run: as §1
# [7] = molecular target: Fuc(a1-2)Gal(b1-3)GlcNAc(b1-2)Man(a1-3)[Fuc(a1-2)Gal(b1-3)GlcNAc(b1-2)Man(a1-6)]Man(b1-4)GlcNAc(b1-4)[Fuc(a1-6)]GlcNAc
# How it was run: as §1
# [8] = molecular target: Fuc(a1-2)Gal(b1-3)GlcNAc(b1-3)Gal(b1-4)Glc
# How it was run: as §1
# [9] = molecular target: Fuc(a1-2)Gal(b1-3)GlcNAc(b1-3)GalNAc
# How it was run: as §1
# [10] = molecular target: Fuc(a1-2)Gal(b1-3)GlcNAc(b1-3)[Fuc(a1-2)Gal(b1-3)GlcNAc(b1-6)]GalNAc
# How it was run: as §1
# [11] = molecular target: Fuc(a1-2)Gal(b1-3)GlcNAc(b1-3)[Gal(b1-4)GlcNAc(b1-6)]Gal(b1-4)Glc
# How it was run: as §1
# [12] = molecular target: Fuc(a1-2)Gal(b1-3)GlcNAc(b1-3)[Neu5Ac(a2-6)Gal(b1-4)GlcNAc(b1-6)]Gal(b1-4)Glc
# How it was run: as §1
# [13] = molecular target: Fuc(a1-2)Gal(b1-3)GlcNAc6S
# How it was run: as §1
# [14] = molecular target: Fuc(a1-2)Gal(b1-3)[Fuc(a1-4)]GlcNAc
# How it was run: as §1
# [15] = molecular target: Fuc(a1-2)Gal(b1-3)[Fuc(a1-4)]GlcNAc(b1-2)Man(a1-3)[Fuc(a1-2)Gal(b1-3)[Fuc(a1-4)]GlcNAc(b1-2)Man(a1-3)]Man(b1-4)GlcNAc(b1-4)GlcNAc
# How it was run: as §1
# [16] = molecular target: Fuc(a1-2)Gal(b1-3)[Fuc(a1-4)]GlcNAc(b1-2)Man(a1-3)[Fuc(a1-2)Gal(b1-3)[Fuc(a1-4)]GlcNAc(b1-2)Man(a1-6)]Man(b1-4)GlcNAc(b1-4)[Fuc(a1-6)]GlcNAc(b1-4)[Fuc(a1-6)]GlcNAc
# How it was run: as §1
# [17] = molecular target: Fuc(a1-2)Gal(b1-3)[Fuc(a1-4)]GlcNAc(b1-3)[Fuc(a1-3)[Gal(b1-4)]GlcNAc(b1-6)]Gal(b1-4)Glc
# How it was run: as §1
# [18] = molecular target: Fuc(a1-2)Gal(b1-3)[Fuc(a1-4)]GlcNAc(b1-3)[Gal(b1-4)GlcNAc(b1-6)]Gal(b1-4)Glc
# How it was run: as §1
# [19] = molecular target: Fuc(a1-2)Gal(b1-4)Fuc(a1-3)]GlcNAc(b1-2)Man(a1-3)[Fuc(a1-2)Gal(b1-4)[Fuc(a1-3)]GlcNAc(b1-2)Man(a1-6)]Man(b1-4)GlcNAc(b1-4)GlcNAc
# How it was run: as §1
# Fuc(a1-2)Gal(b1-4)Glc = molecular target: Fuc(a1-2)Gal(b1-4)Glc
# How it was run: as §1
# Fuc(a1-2)Gal(b1-4)Glc6S = molecular target: Fuc(a1-2)Gal(b1-4)Glc6S
# How it was run: as §1
# Fuc(a1-2)Gal(b1-4)GlcNAc = molecular target: Fuc(a1-2)Gal(b1-4)GlcNAc
# How it was run: as §1
# [20] = molecular target: Fuc(a1-2)Gal(b1-4)GlcNAc(b1-2)Man
# How it was run: as §1
# [21] = molecular target: Fuc(a1-2)Gal(b1-4)GlcNAc(b1-2)Man(a1-3)[Fuc(a1-2)Gal(b1-4)GlcNAc(b1-2)Man(a1-6)]Man(b1-4)GlcNAc(b1-4)GlcNAc
# How it was run: as §1
# [22] = molecular target: Fuc(a1-2)Gal(b1-4)GlcNAc(b1-2)Man(a1-3)[Fuc(a1-2)Gal(b1-4)GlcNAc(b1-2)Man(a1-6)]Man(b1-4)GlcNAc(b1-4)[Fuc(a1-6)]GlcNAc
# How it was run: as §1
# [23] = molecular target: Fuc(a1-2)Gal(b1-4)GlcNAc(b1-2)[Fuc(a1-2)Gal(b1-4)GlcNAc(b1-4)]Man(a1-3)[Fuc(a1-2)Gal(b1-4)GlcNAc(b1-2)Man(a1-6)]Man(b1-4)GlcNAc(b1-4)GlcNAc
# How it was run: as §1
# [24] = molecular target: Fuc(a1-2)Gal(b1-4)GlcNAc(b1-3)Gal(b1-4)GlcNAc
# How it was run: as §1
binder,measurement,setting,value
B1,glycan array binding signal (z-score),Fuc(a1-2)Gal,-0.113
same,glycan array binding signal (z-score),Fuc(a1-2)Gal(b1-3)GalNAc,-0.754
same,glycan array binding signal (z-score),[1],0.096
same,glycan array binding signal (z-score),[2],1.02
same,glycan array binding signal (z-score),[3],0.333
same,glycan array binding signal (z-score),[4],-0.536
same,glycan array binding signal (z-score),[5],-0.077
same,glycan array binding signal (z-score),Fuc(a1-2)Gal(b1-3)GlcNAc,-0.162
same,glycan array binding signal (z-score),[6],0.438
same,glycan array binding signal (z-score),[7],0.64
same,glycan array binding signal (z-score),[8],0.444
same,glycan array binding signal (z-score),[9],0.676
same,glycan array binding signal (z-score),[10],0.107
same,glycan array binding signal (z-score),[11],-0.798
same,glycan array binding signal (z-score),[12],-0.247
same,glycan array binding signal (z-score),[13],-0.564
same,glycan array binding signal (z-score),[14],-0.534
same,glycan array binding signal (z-score),[15],-0.391
same,glycan array binding signal (z-score),[16],0.18
same,glycan array binding signal (z-score),[17],-0.224
same,glycan array binding signal (z-score),[18],-0.502
same,glycan array binding signal (z-score),[19],-0.28
same,glycan array binding signal (z-score),Fuc(a1-2)Gal(b1-4)Glc,0.722
same,glycan array binding signal (z-score),Fuc(a1-2)Gal(b1-4)Glc6S,-0.455
same,glycan array binding signal (z-score),Fuc(a1-2)Gal(b1-4)GlcNAc,-0.391
same,glycan array binding signal (z-score),[20],-0.62
same,glycan array binding signal (z-score),[21],-0.309
same,glycan array binding signal (z-score),[22],-0.249
same,glycan array binding signal (z-score),[23],-0.227
same,glycan array binding signal (z-score),[24],-0.759

# Some of the entries so far, with tabs:
binder	measurement	setting	value
B1	glycan array binding signal (z-score)	Fuc(a1-2)Gal(b1-3)GalNAc	-0.754
same	glycan array binding signal (z-score)	[12]	-0.247
